# Data published in the supplement of paper PMC11732987, “Enantioselective OTUD7B fragment discovery through chemoproteomics screening and high-throughput optimisation” (Communications Chemistry, 2025).
# Chains of the proteins cited; added tags and fusions are not shown. Lines headed by an entry give the natural chain unless they say otherwise; changes in a name come on top.
# UniProt Q9BY12: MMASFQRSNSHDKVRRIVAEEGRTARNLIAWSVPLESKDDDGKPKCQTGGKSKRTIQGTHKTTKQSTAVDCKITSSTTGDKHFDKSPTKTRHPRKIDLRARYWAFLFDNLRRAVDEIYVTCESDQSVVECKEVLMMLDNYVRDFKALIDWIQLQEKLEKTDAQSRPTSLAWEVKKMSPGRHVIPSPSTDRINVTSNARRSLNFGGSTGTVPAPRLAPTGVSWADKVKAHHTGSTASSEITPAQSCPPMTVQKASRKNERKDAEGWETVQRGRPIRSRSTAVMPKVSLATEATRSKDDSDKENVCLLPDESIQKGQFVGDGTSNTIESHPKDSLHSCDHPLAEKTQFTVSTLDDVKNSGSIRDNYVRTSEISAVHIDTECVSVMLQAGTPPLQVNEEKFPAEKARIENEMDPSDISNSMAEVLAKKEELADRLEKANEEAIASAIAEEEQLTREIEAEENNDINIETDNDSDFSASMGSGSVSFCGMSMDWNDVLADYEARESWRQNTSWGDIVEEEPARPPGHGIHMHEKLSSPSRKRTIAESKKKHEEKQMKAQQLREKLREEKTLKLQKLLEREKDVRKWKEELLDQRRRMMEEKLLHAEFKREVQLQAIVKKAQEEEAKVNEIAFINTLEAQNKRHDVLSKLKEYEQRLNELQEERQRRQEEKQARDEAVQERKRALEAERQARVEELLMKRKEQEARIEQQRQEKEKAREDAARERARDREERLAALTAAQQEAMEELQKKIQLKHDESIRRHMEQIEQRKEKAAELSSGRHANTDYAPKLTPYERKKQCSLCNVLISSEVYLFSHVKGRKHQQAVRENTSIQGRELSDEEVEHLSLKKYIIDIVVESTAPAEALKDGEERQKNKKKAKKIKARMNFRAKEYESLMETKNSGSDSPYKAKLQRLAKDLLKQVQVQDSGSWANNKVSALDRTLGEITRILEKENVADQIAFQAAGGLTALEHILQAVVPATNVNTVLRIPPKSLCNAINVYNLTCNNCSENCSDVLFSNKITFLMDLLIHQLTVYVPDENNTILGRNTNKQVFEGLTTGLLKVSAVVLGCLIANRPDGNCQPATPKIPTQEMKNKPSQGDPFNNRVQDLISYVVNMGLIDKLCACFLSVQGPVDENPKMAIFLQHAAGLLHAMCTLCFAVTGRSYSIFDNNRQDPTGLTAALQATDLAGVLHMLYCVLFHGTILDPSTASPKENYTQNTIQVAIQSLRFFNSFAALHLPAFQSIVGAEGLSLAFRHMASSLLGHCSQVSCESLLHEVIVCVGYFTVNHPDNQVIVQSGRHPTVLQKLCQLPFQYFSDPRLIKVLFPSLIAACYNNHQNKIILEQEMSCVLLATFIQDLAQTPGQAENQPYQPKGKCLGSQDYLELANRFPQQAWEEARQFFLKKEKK
# The other results are listed elsewhere or left out. The data scatter; read single values as rough.
# Target: T1, SCAPER C245 (UniProt Q9BY12)
# T1 sequence (whole entry): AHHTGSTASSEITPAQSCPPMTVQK
# Assay: log2 mean competition ratio of IA-DTB cysteine labelling (DMSO/compound) (log2 ratio); higher = stronger cysteine engagement by compound
# Settings: 50 µM; treatment time: 4 h; cell line lysate: HEK293T
# Description: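 IA-DTB competitive cysteine chemoproteomics in HEK293T RIPA lysate. Lysates were treated with compound 29 or 30 at 50 or 200 µM for 4 h, then IA-DTB (500 µM, 1 h), trypsin-digested, NeutrAvidin-enriched and analysed by diaPASEF. Competition ratio = intensity DMSO / intensity compound (n=4 treated, n=64 DMSO); binding: mean log2 CR ≥ 1 and p ≤ 0.05 plus QC filters. Target is the cysteine site.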
row,Structure (SMILES),log2 mean competition ratio
1,O=C(CCl)N[C@H]1CCCc2ccccc21,0.00451
2,O=C(CCl)N[C@@H]1CCCc2ccccc21,-0.0761

# Same assay, conditions: 200 µM; treatment time: 4 h; cell line lysate: HEK293T
row,Structure (SMILES),log2 mean competition ratio
1,O=C(CCl)N[C@H]1CCCc2ccccc21,-0.0792
2,O=C(CCl)N[C@@H]1CCCc2ccccc21,0.119
